Holding throughout (assay): EMSA
Series [1] addresses T1, RadD F393A (Escherichia coli) (UniProt P33919).
T1 sequence (looked up, limits assumed): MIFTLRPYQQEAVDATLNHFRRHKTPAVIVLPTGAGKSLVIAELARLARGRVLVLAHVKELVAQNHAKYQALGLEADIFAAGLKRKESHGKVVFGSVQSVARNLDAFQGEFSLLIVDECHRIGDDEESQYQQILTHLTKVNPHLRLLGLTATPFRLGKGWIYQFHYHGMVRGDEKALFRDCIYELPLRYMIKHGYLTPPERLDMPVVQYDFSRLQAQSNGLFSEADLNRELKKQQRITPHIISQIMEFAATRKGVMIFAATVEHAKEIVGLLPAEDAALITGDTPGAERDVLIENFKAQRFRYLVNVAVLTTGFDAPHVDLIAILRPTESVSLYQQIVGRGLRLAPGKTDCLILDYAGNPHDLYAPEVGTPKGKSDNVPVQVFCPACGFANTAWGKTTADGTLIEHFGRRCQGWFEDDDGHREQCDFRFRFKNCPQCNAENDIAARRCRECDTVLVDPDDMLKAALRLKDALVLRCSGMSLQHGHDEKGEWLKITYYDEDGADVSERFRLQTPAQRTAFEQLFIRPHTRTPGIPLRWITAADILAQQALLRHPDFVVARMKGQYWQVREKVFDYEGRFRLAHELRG
Particulars: range for the group; 20 mM Bis-Tris pH 6.5, 50 mM NaCl, 15% glycerol, 10 mM beta-mercaptoethanol, 37 C 30 min, 33 nM HJ, 0-20 uM RadD; 8% native PAGE in 0.5x TBE; text says 'branched DNA'; recombinant protein; folded or branched DNA.

Series [2] has as its target T2, RadD F407A (Escherichia coli) (UniProt P33919).
T2 sequence (looked up, limits assumed): T1 sequence (looked up, limits assumed) with A393F, F407A
Particulars: range for the group; 20 mM Bis-Tris pH 6.5, 50 mM NaCl, 15% glycerol, 10 mM beta-mercaptoethanol, 37 C 30 min, 33 nM HJ, 0-20 uM RadD; 8% native PAGE in 0.5x TBE; text says 'branched DNA'; recombinant protein; folded or branched DNA.

Series [3] concerns the target T3, RadD K396A (Escherichia coli) (UniProt P33919).
T3 sequence (looked up, limits assumed): T1 sequence (looked up, limits assumed) with A393F, K396A
Particulars: range for the group; 20 mM Bis-Tris pH 6.5, 50 mM NaCl, 15% glycerol, 10 mM beta-mercaptoethanol, 37 C 30 min, 33 nM HJ, 0-20 uM RadD; 8% native PAGE in 0.5x TBE; text says 'branched DNA'; recombinant protein; folded or branched DNA.

Series [4] deals with T4, RadD K488A (Escherichia coli) (UniProt P33919).
T4 sequence (looked up, limits assumed): T1 sequence (looked up, limits assumed) with A393F, K488A
Particulars: 20 mM Bis-Tris pH 6.5, 50 mM NaCl, 15% glycerol, 10 mM beta-mercaptoethanol, 37 C 30 min, 33 nM HJ, 0-20 uM RadD; 8% native PAGE in 0.5x TBE; text says 'branched DNA'; recombinant protein; folded or branched DNA.

Series [5] deals with T5, RadD K493A (Escherichia coli) (UniProt P33919).
T5 sequence (looked up, limits assumed): T1 sequence (looked up, limits assumed) with A393F, K493A
Particulars: range for the group; 20 mM Bis-Tris pH 6.5, 50 mM NaCl, 15% glycerol, 10 mM beta-mercaptoethanol, 37 C 30 min, 33 nM HJ, 0-20 uM RadD; 8% native PAGE in 0.5x TBE; text says 'branched DNA'; recombinant protein; folded or branched DNA.

Series [6] has as its target T6, RadD R428A (Escherichia coli) (UniProt P33919).
T6 sequence (looked up, limits assumed): T1 sequence (looked up, limits assumed) with A393F, R428A
Particulars: 20 mM Bis-Tris pH 6.5, 50 mM NaCl, 15% glycerol, 10 mM beta-mercaptoethanol, 37 C 30 min, 33 nM HJ, 0-20 uM RadD; 8% native PAGE in 0.5x TBE; text says 'branched DNA'; recombinant protein; folded or branched DNA.

In series [7] the target is T7, RadD R507A (Escherichia coli) (UniProt P33919).
T7 sequence (looked up, limits assumed): T1 sequence (looked up, limits assumed) with A393F, R507A
Particulars: range for the group; 20 mM Bis-Tris pH 6.5, 50 mM NaCl, 15% glycerol, 10 mM beta-mercaptoethanol, 37 C 30 min, 33 nM HJ, 0-20 uM RadD; 8% native PAGE in 0.5x TBE; text says 'branched DNA'; recombinant protein; folded or branched DNA.

Positions count from the first letter of the chain named. For at least one entry, the source does not settle the construct or the ends of the probe. For some of these results: A weaker result is weaker than the reference pair of the same experiment. For some of these results: At least one verdict rests on a figure or table, not on a statement of the authors. Tags and fusion partners may be left off the protein sequences shown. For some of these results: The direction of at least one scale is not stated here.

For “CCGCTACCAGTGATCACCAATGGATTGCTAGGACATCTTTGCCCACCTGCAGGTTCACCC / TGGGTGAACCTGCAGGTGGGCAAAGATGTCCTAGCAATCCATTGTCTATGACGTCAAGCTC / GAGCTTGACGTCATAGACAATGGATTGCTAGGACATCTTTGCCGTCTTGTCAATATCGGC / TGCCGATATTGACAAGACGGCAAAGATGTCCTAGCAATCCATTGGTGATCACTGGTAGCGG [Holliday junction (HJ)]”, the binding result in series [1], in series [2], in series [3], in series [5] and in series [7] was “binds more weakly” in each case. In addition, the binding signal in series [4] is 31 % of WT; in series [6] it was 34 % of WT.

For the origin of these results see publication PMC9821108, “Biochemical and Structural Analyses Shed Light on the Mechanisms of RadD DNA Binding and Its ATPase from Escherichia coli” (International Journal of Molecular Sciences, 2023).
